Source: PubChem BioAssay AID686937 (Drosophila RNAi Screening Center, 2013)

Assay: 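Genes whose loss weakens secretory pathway function in fly cells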 (primary screen)
Cell system: Drosophila S2 cells expressing secreted horseradish peroxidase
Knock-down reagent: long dsRNA against Drosophila genes
Duration: about 5.5 days (5 days dsRNA, then 12 h reporter induction)
Treatment: reporter expression induced after 5 days of dsRNA, read 12 h later; inducer not stated
Detection: 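Chemiluminescent measurement of peroxidase in the medium 12 h after reporter induction, following 5 days of dsRNA, given as a z-score per plate; higher means more secretion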
Direction: z-score: higher = more reporter secreted into medium
The screen tested about 23,000 reagents; below is an unselected part of those that have a named target and a result. 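Reduced-secretion tags in replicate 1 do not always agree with the z-scores; no criterion for assigning the tags was given.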 Names joined by + are all predicted targets of the reagent. Not all columns of the deposit are shown. Reagent sequences are not shown. The record does not give: the amount of reagent.

CG15657 [DRSC04248]
- z-score, replicate 1: 0.23

CG11279 [DRSC09837]
- z-score, replicate 1: 0.23

CG1523 [DRSC15033]
- z-score, replicate 1: 0.34

Bet3 (Blocked early in transport 3) [DRSC10388]
- z-score, replicate 1: -1.88

CG12522 [DRSC09088]
- z-score, replicate 1: -0.04

CG3014 [DRSC15458]
- z-score, replicate 1: 0.35

Obp83g (Odorant-binding protein 83g) [DRSC12269]
- z-score, replicate 1: 0.12

CG31191 [DRSC13455]
- z-score, replicate 1: 0.27

CG31191 [DRSC15214]
- z-score, replicate 1: 0.24

CG31191 [DRSC15215]
- z-score, replicate 1: 0.03

UbcE2M (NEDD8-conjugating enzyme UbcE2M) [DRSC10828]
- z-score, replicate 1: -0.08

CR33221 (pseudo) [DRSC21201]
- z-score, replicate 1: 0.35

Dpit47 (DNA polymerase interacting tpr containing protein of 47kD) [DRSC04985]
- z-score, replicate 1: 0.03

CG6793 [DRSC10714]
- z-score, replicate 1: 0.54

CG3788 [DRSC04418]
- z-score, replicate 1: 0.04

PheRS-m (Phenylalanyl-tRNA synthetase, mitochondrial) [DRSC05915]
- z-score, replicate 1: 0.47

Tdc2 (Tyrosine decarboxylase 2) [DRSC04999]
- z-score, replicate 1: 0.24

Vps11 (Vacuolar protein sorting 11) [DRSC11909]
- z-score, replicate 1: 0.45

Vps11 (Vacuolar protein sorting 11) [DRSC21579]
- z-score, replicate 1: -0.34

CG14258 [DRSC14753]
- z-score, replicate 1: 0.38

ppk17 (pickpocket 17) [DRSC02252]
- z-score, replicate 1: 0.41

CG14907 + Mettl4 [DRSC15026]
- z-score, replicate 1: -0.24

CG14907 + Mettl4 [DRSC15027]
- z-score, replicate 1: 0.08

betaNACtes2 (Nascent-associated complex beta-subunit-like, testis 2) [DRSC19792]
- z-score, replicate 1: 0.27

dao (down and out) [DRSC01960]
- z-score, replicate 1: 0.08

CG43293 [DRSC08797]
- z-score, replicate 1: -0.49

CG13101 [DRSC02201]
- z-score, replicate 1: 0.43

RpL23A (Ribosomal protein L23A) [DRSC08694]
- z-score, replicate 1: 0.09

RpL23A (Ribosomal protein L23A) [DRSC22035]
- z-score, replicate 1: 0.27

RpL13 (Ribosomal protein L13) [DRSC03416]
- z-score, replicate 1: 0.52

Panx (Panoramix) [DRSC04563]
- z-score, replicate 1: -0.03

Myt1 [DRSC11228]
- z-score, replicate 1: 0.14

CG9184 [DRSC08636]
- z-score, replicate 1: 0.47

CG9184 [DRSC22184]
- z-score, replicate 1: -0.42

atos (atossa) [DRSC07318]
- z-score, replicate 1: 0.47

Glut4EF (Glucose transporter 4 enhancer factor) [DRSC14347]
- z-score, replicate 1: -0.71

Glut4EF (Glucose transporter 4 enhancer factor) [DRSC14512]
- z-score, replicate 1: 0.17

Glut4EF (Glucose transporter 4 enhancer factor) [DRSC14541]
- z-score, replicate 1: 0.2

Glut4EF (Glucose transporter 4 enhancer factor) [DRSC14542]
- z-score, replicate 1: 0.04

Glut4EF (Glucose transporter 4 enhancer factor) [DRSC14543]
- z-score, replicate 1: 0.08

Taken from above:
For “z-score, replicate 1”, Tdc2 (Tyrosine decarboxylase 2) [DRSC04999] reads 0.24
Glut4EF (Glucose transporter 4 enhancer factor) [DRSC14512], z-score, replicate 1 → 0.17
CG1523 [DRSC15033], z-score, replicate 1: 0.34
For “z-score, replicate 1”, PheRS-m (Phenylalanyl-tRNA synthetase, mitochondrial) [DRSC05915] reads 0.47
Result of Vps11 (Vacuolar protein sorting 11) [DRSC21579] under “z-score, replicate 1”: -0.34
Value for RpL23A (Ribosomal protein L23A) [DRSC08694] under “z-score, replicate 1”: 0.09
